From PubChem BioAssay AID1259354 (Paczesny and Yang Labs, IUPUI and University of Michigan, 2018)
Among all 78,000 compounds or so, about 1,800 (2.3%) were called active. Inconclusive means that the source gave no clear call. Such entries were picked first, then a sample of the others. Cut-off read from the data, not from the text of the source: active = inhibition above about 30%; inconclusive = mostly about 10% to 28%; inactive = weaker than that.

By UniProt entry, the sequences of proteins in these tests, tags left out. Where a name states a change or a piece, a line headed by the entry shows the natural chain unless it says otherwise.
UniProt Q01638: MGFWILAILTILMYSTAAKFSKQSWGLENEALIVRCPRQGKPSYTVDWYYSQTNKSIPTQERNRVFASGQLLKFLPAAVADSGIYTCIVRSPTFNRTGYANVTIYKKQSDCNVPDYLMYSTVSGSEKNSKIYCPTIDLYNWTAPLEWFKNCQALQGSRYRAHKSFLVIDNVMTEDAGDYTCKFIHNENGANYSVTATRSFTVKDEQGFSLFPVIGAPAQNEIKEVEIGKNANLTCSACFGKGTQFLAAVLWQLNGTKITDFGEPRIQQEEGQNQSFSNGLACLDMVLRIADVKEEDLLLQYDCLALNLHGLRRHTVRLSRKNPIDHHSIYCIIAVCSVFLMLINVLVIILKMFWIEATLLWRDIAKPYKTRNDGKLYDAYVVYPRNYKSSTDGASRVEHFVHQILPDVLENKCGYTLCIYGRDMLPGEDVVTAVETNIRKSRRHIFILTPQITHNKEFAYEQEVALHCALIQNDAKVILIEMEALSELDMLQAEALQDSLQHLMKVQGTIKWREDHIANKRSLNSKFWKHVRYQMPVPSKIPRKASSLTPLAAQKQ

The compounds below were run against Interleukin-1 receptor-like 1 (Homo sapiens) (UniProt Q01638) (assay: inhibitors of human ST2 (IL1RL1) binding to IL-33, primary screen, biochemical, AlphaLISA (AID 1259354)). Details: AlphaLISA ST2-Fc/biotin-IL-33 interaction, 1 h; at 17 µM, stronger effect = higher value.

SMILES	inhibition
O=C(c1cnccn1)N1C[C@@H]2C[C@H](C1)c1ccc(/C=C/c3ccc(Cl)cc3)c(=O)n1C2	inactive
CCNC1(c2nnnn2-c2cccc(Cl)c2)CCCCC1	inconclusive: 25%
Cc1ccc(N2CCN(CCc3ccccc3)CC2)cc1	inconclusive: 14%
O=C(O)C1Nc2c(F)cccc2C2C(Cl)C(Sc3ccccc3[N+](=O)[O-])CC12 (stereo not drawn)	active: 34%
CC1CCN(c2cc(Br)c([N+](=O)[O-])cc2F)CC1	active: 45%
O=[N+]([O-])c1ccc(O)cc1CN1CCN(Cc2ccccc2)CC1	inactive
O=[N+]([O-])c1ccc(CN2CCN(c3ccc(F)cc3)CC2)cc1	inconclusive: 16%
CC1CCN(C[C@H]2CN3CC[C@H]2C[C@@H]3CNC(=S)Nc2ccc(-n3cccn3)cc2)CC1	inactive
S=C(NCCN1CCOCC1)NC[C@H]1C[C@@H]2CCN1C[C@@H]2CN1CCSCC1	inconclusive: 10%
Fc1ccc(N2CCN(C[C@H]3CN4CC[C@H]3C[C@@H]4CNC(=S)Nc3cccc(Cl)c3)CC2)cc1	inconclusive: 26%
CN(CCc1ccccn1)C[C@H]1CN2CC[C@H]1C[C@@H]2CNC(=O)c1ccccc1	inconclusive: 23%
CC(Cn1cncn1)NCCN1CCc2ccccc21 (stereo not drawn)	inconclusive: 10%
O=C1CO[C@H]2CN(Cc3cccnc3)C[C@H]2N1	inconclusive: 14%
COC(=O)c1cccc(NC(=S)NC[C@H]2C[C@@H]3CCN2C[C@@H]3c2cc(-c3ccco3)nn2C)c1	inactive
COc1ccccc1CNC(=O)[C@H]1CN2CCC1C[C@@H]2Cn1cc(C(C)(C)O)nn1 (stereo partly drawn)	inconclusive: 14%
CN(CCc1ccccn1)C[C@H]1CN2CC[C@H]1C[C@@H]2CNC(=O)c1ccco1	inconclusive: 14%
CC(=O)OCC1=C(C(=O)[O-])N2C(=O)[C@@H](NC(=O)CCC[C@@H](N)C(=O)[O-])[C@H]2SC1.[Zn+2]	inconclusive: 26%
COc1ccc(C(=O)N2C[C@@H]3C[C@H](C2)c2ccc(-c4cccc(C#N)c4)c(=O)n2C3)cc1	inconclusive: 14%
O=[N+]([O-])c1ccc(N2CCN(Cc3cccc(F)c3)CC2)cc1	inconclusive: 28%
Cc1cc(C2C[C@H]3CC[C@@H](C2)N3Cc2cc3n(n2)CCNC3)ccc1F (stereo partly drawn)	inactive
Nc1ccc(Cl)cc1C(=O)c1ccccc1	inconclusive: 29%

SMILES	inhibition
COc1ccc(-n2c(/C=C/c3ccccc3)nc3ccccc3c2=O)cc1OC	inactive
CSc1cccc(NC(=O)NC[C@H]2C[C@@H]3CCN2C[C@@H]3CN2CCC(Cc3ccccc3)CC2)c1	inconclusive: 11%
CC(C)(O)c1cn(C[C@H]2CC3CCN2C[C@@H]3C(=O)NC2CCCCC2)nn1 (stereo partly drawn)	inconclusive: 19%
CC(=O)Nc1ccc(-c2ccc(=O)n3c2[C@@H]2C[C@@H](CN(C4CCOCC4)C2)C3)cc1	inconclusive: 10%
COc1ccc(NC(=O)CN2C(=O)CN=C(c3ccccc3)c3cc(Cl)ccc32)cc1OC	inconclusive: 18%
O=C(NC1CCCCC1)[C@H]1CN2CC[C@H]1C[C@@H]2Cn1cc(CC2CCCCC2)nn1	inconclusive: 12%
O=C(O)Cc1cnc[nH]1	inconclusive: 16%
COC(=O)C(CCSC)NC(=O)c1cn(C2CCCCC2)nn1 (stereo not drawn)	inactive
COc1ccccc1N1C(=O)C2[C@H](C1=O)[C@@]1(Cl)C(Cl)=C(Cl)[C@@]2(Cl)C1(Cl)Cl (stereo partly drawn)	inactive
Cc1cccc(NC(c2ccc(N(C)C)cc2)c2ccc3ccc(C)nc3c2O)n1 (stereo not drawn)	active: 44%
CCC(CC)c1cc([C@H]2CN3CC[C@H]2C[C@@H]3CNC(=O)c2cccs2)nc(-c2ccncc2)n1	inconclusive: 14%
O=C(NC1CN2CCC1CC2)c1cc(-c2ccc(Cl)cc2)nc2ccccc12 (stereo not drawn)	inconclusive: 13%
CC(C)NC(=O)OC[C@H]1C[C@@H]2CCN1C[C@@H]2c1cc(C2CCCCC2)nn1C	inactive
CCOc1ccc(CN2CCN(c3ccc(F)cc3)CC2)cc1	inconclusive: 22%
CCCNC(=O)OC[C@H]1C[C@@H]2CCN1C[C@@H]2c1cc(-c2ccccc2OC)nn1C	inactive
COc1ccc(N2CCN(Cc3ccc(Cl)c(Cl)c3)CC2)cc1	active: 35%
O=[N+]([O-])c1ccc(O)c(CN2CCN(c3cccc(Cl)c3)CC2)c1	inconclusive: 29%
COc1ccc2c(c1OC)C(=O)O[C@H]2[C@@H]1c2cc3c(cc2CCN1C)OCO3	inconclusive: 10%
Clc1ccc(C(c2ccc(Cl)cc2)n2cc[n+](CC(OCc3ccc(Cl)cc3Cl)c3ccc(Cl)cc3Cl)c2)cc1 (stereo not drawn)	inconclusive: 16%
COc1ccc(OC)c(CN2CCN(C)CC2)c1	inactive
COc1ccc(CN2CCN(C)CC2)cc1	inconclusive: 15%

SMILES	inhibition
COc1ccc(CN2CCN(c3ccccc3)CC2)cc1O	inactive
COC(=O)c1cccc(NC(=S)NC[C@H]2C[C@@H]3CCN2C[C@@H]3c2cc(-c3ccccc3)nn2C)c1	inconclusive: 10%
O=C(c1cnc2cccnn12)N1C[C@H](c2ccccc2)[C@@H]2[C@H]1C1CCN2CC1	inconclusive: 18%
c1ccc2cc(CC3=NCCN3)ccc2c1	inconclusive: 22%
CCOC(=O)c1nc2ccccc2c(=O)n1-c1ccc(Cl)c(Cl)c1	inactive
O=C(NC1CCCCC1)N1C[C@@H]2C[C@H](C1)c1c(NS(=O)(=O)c3cccs3)ccc(=O)n1C2	inconclusive: 22%
CN1C[C@@H]2OCC(=O)N(CC3CC3)[C@@H]2C1	inactive
O=C1C2CCCN2C(c2cccnc2)N1c1ccccn1 (stereo not drawn)	inactive
CCCCNC(=O)c1oc2ccc(S(=O)(=O)N3CC(C)CC(C)C3)cc2c1C (stereo not drawn)	inactive
CN(C)Cc1ccccc1-c1ccc2n(c1=O)C[C@H]1C[C@@H]2CN(C(=O)C2CCCCC2)C1	inactive
Cn1nc(-c2ccc(F)cc2)cc1[C@H]1CN2CC[C@H]1C[C@@H]2CNC(=O)CC(C)(C)CC(=O)O	inactive
O=C1C2CCCN2C(c2ccc(F)cc2)N1c1ccccn1 (stereo not drawn)	inactive
COc1ccc(/C=C/[N+](=O)[O-])cc1	inconclusive: 21%
COc1ccc(CN2CCN(c3ccccc3C)CC2)c(OC)c1	inconclusive: 12%
CSc1cccc(NC(=O)CN2C(=O)C(C)N=C(c3ccccc3)c3ccccc32)c1 (stereo not drawn)	inconclusive: 24%
O=C(NC[C@H]1C[C@@H]2CCN1C[C@@H]2CN1C[C@@H]2C[C@H](C1)c1cccc(=O)n1C2)c1ccccc1	inconclusive: 17%
COc1cc(/C=C/[N+](=O)[O-])cc(I)c1OCc1ccccc1	inconclusive: 22%
CCn1cc(C(=O)O)c(=O)c2c(N)c(F)c(N3CCNCC3)c(F)c21	inconclusive: 17%
Nc1ccc([N+](=O)[O-])cc1C(=O)c1ccccc1	inconclusive: 22%
COc1ccc(-c2cc([C@H]3CN4CC[C@H]3C[C@@H]4CNC(=O)c3cccs3)nc(C)n2)cc1OC	inconclusive: 19%
CCC(CC)c1cc([C@H]2CN3CC[C@H]2C[C@@H]3CNC(=O)N2CCOCC2)nc(-c2ccncc2)n1	inconclusive: 12%

SMILES	inhibition
CCOc1ccccc1CN1CCN(c2ccccc2)CC1	inconclusive: 13%
COC(=O)[C@H](Cc1ccccc1)NC(=O)c1cn(Cc2c(F)cccc2F)nn1	inactive
CCn1cc(C(=O)N2CCC3(CC2)OCCO3)c2cc(OC)c(OC)cc2c1=O	inactive
O=C(NC[C@H]1C[C@@H]2CCN1C[C@@H]2CN1CCCC1)c1ccccc1	inactive
CC12C=C[C@@](C)(O1)[C@@H]1C(=O)N(c3ccccc3[N+](=O)[O-])C(=O)[C@@H]12	inconclusive: 10%
COc1ccccc1N1CCN(C[C@H]2CN3CC[C@H]2C[C@@H]3CNS(=O)(=O)c2ccc(Cl)cc2)CC1	inactive
CC(=O)c1c(O)c(C)c(O)c(Cc2c(O)c3c(c(C(=O)/C=C/c4ccccc4)c2O)OC(C)(C)C=C3)c1O	inconclusive: 20%
CN1C[C@@H](CS(=O)(=O)N(C)C)C[C@@H]2c3cccc4c3c(cn4C)C[C@H]21	inconclusive: 19%
O=C(C1CCCCC1)N1C[C@@H]2C[C@H](C1)c1c(-c3ccc4ccccc4c3)ccc(=O)n1C2	inactive
Cn1nc(-c2ccccc2)cc1[C@H]1CN2CC[C@H]1C[C@@H]2CN	inconclusive: 14%
COc1ccc(-c2cn(C[C@H]3CC4CCN3C[C@@H]4C(=O)N3CCN(c4ccccc4OC)CC3)nn2)cc1 (stereo partly drawn)	inconclusive: 11%
O=C(C1CCCCC1)N1C[C@@H]2C[C@H](C1)c1c(-c3cc4ccccc4s3)ccc(=O)n1C2	inactive
O=C(NC[C@@H]1CC2C=CC1C21CC1)c1cn(Cc2ccccc2F)nn1 (stereo partly drawn)	inconclusive: 12%
CCC(CC)C(=O)NC[C@H]1C[C@@H]2CCN1C[C@@H]2c1cc(-c2cccs2)nc(C)n1	inconclusive: 11%
Cc1cc(=O)n(-c2ccccc2)n1-c1ccccc1	inconclusive: 13%
CSc1cccc(NC(=O)NC[C@H]2C[C@@H]3CCN2C[C@@H]3CN(C)c2ccccc2)c1	inconclusive: 23%
COc1ccc(C(=O)NC[C@H]2C[C@@H]3CCN2C[C@@H]3c2cc(-c3cccs3)nn2C)cc1	inconclusive: 13%
Cc1ccc(S(=O)(=O)NC[C@H]2C[C@@H]3CCN2C[C@@H]3CN2CCN(c3ccccc3)CC2)cc1	active: 33%
C=CCN(C)C(=O)[C@H]1CN2CCC1C[C@@H]2Cn1cc(CSc2ccccc2)nn1 (stereo partly drawn)	inconclusive: 20%
C[C@@H]1O[C@@H](O[C@@H]2C=C3CC[C@@H]4C(CC[C@]5(C)[C@@H](c6ccc(=O)oc6)CC[C@]45O)[C@@]3(C)CC2)[C@H](O)[C@H](O)[C@H]1O (stereo partly drawn)	inactive

Retrieved one by one from the list above:
SMILES	inhibition
Cc1ccc(S(=O)(=O)NC[C@H]2C[C@@H]3CCN2C[C@@H]3CN2CCN(c3ccccc3)CC2)cc1	active: 33%
CC(=O)OCC1=C(C(=O)[O-])N2C(=O)[C@@H](NC(=O)CCC[C@@H](N)C(=O)[O-])[C@H]2SC1.[Zn+2]	inconclusive: 26%
O=[N+]([O-])c1ccc(O)cc1CN1CCN(Cc2ccccc2)CC1	inactive
C=CCN(C)C(=O)[C@H]1CN2CCC1C[C@@H]2Cn1cc(CSc2ccccc2)nn1 (stereo partly drawn)	inconclusive: 20%
CC(Cn1cncn1)NCCN1CCc2ccccc21 (stereo not drawn)	inconclusive: 10%
